In the supplement of paper PMC8728848:
This is one part of the list.

Assays:
Assay in all cases: glycan array binding signal (z-score within array); higher = stronger binding
Settings in all cases: glycan notation: IUPAC condensed, linker removed
[1] = biological target: Neu5Ac(a2-3)Gal(b1-4)GlcNAc(b1-2)Man(a1-3)[Neu5Ac(a2-6)Gal(b1-4)GlcNAc(b1-2)Man(a1-6)]Man(b1-4)GlcNAc(b1-4)GlcNAc
In short: (§1)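 Glycan array data were curated from 3228 arrays in the Consortium for Functional Glycomics database and kept only where the protein sequence was available. Glycan names were converted to IUPAC-condensed notation, and columns mapping to the same glycan were averaged. The binding signal is a within-array Z-score, averaged across arrays of the same protein sequence at different concentrations or buffers and across linkers. Negative Z-scores can be read as non-binding.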

[2] = biological target: Neu5Ac(a2-3)Gal(b1-4)GlcNAc(b1-2)[Neu5Ac(a2-3)Gal(b1-4)GlcNAc(b1-4)]Man(a1-3)[GlcNAc(b1-4)][Neu5Ac(a2-3)Gal(b1-4)GlcNAc(b1-2)[Neu5Ac(a2-3)Gal(b1-4)GlcNAc(b1-6)]Man(a1-6)]Man(b1-4)GlcNAc(b1-4)GlcNAc
In short: as §1

[3] = biological target: Neu5Ac(a2-3)Gal(b1-4)GlcNAc(b1-2)[Neu5Ac(a2-3)Gal(b1-4)GlcNAc(b1-4)]Man(a1-3)[GlcNAc(b1-4)][Neu5Ac(a2-3)Gal(b1-4)GlcNAc(b1-4)Man(a1-6)]Man(b1-4)GlcNAc(b1-4)GlcNAc
In short: as §1

[4] = biological target: Neu5Ac(a2-3)Gal(b1-4)GlcNAc(b1-2)[Neu5Ac(a2-3)Gal(b1-4)GlcNAc(b1-6)]Man(a1-6)[Neu5Ac(a2-3)Gal(b1-4)GlcNAc(b1-2)Man(a1-3)][GlcNAc(b1-4)]Man(b1-4)GlcNAc(b1-4)GlcNAc
In short: as §1

[5] = biological target: Neu5Ac(a2-3)Gal(b1-4)GlcNAc(b1-3)Gal
In short: as §1

[6] = biological target: Neu5Ac(a2-3)Gal(b1-4)GlcNAc(b1-3)Gal(b1-3)GlcNAc
In short: as §1

[7] = biological target: Neu5Ac(a2-3)Gal(b1-4)GlcNAc(b1-3)Gal(b1-4)GlcNAc
In short: as §1

[8] = biological target: Neu5Ac(a2-3)Gal(b1-4)GlcNAc(b1-3)Gal(b1-4)GlcNAc(b1-2)Man(a1-3)[Neu5Ac(a2-3)Gal(b1-4)GlcNAc(b1-3)Gal(b1-4)GlcNAc(b1-2)Man(a1-6)]Man(b1-4)GlcNAc(b1-4)GlcNAc
In short: as §1

[9] = biological target: Neu5Ac(a2-3)Gal(b1-4)GlcNAc(b1-3)Gal(b1-4)GlcNAc(b1-3)Gal(b1-4)GlcNAc
In short: as §1

[10] = biological target: Neu5Ac(a2-3)Gal(b1-4)GlcNAc(b1-3)Gal(b1-4)GlcNAc(b1-3)Gal(b1-4)GlcNAc(b1-2)Man(a1-3)[Neu5Ac(a2-3)Gal(b1-4)GlcNAc(b1-3)Gal(b1-4)GlcNAc(b1-3)Gal(b1-4)GlcNAc(b1-2)Man(a1-6)]GalNAc
In short: as §1

[11] = biological target: Neu5Ac(a2-3)Gal(b1-4)GlcNAc(b1-3)Gal(b1-4)GlcNAc(b1-3)GalNAc
In short: as §1

[12] = biological target: Neu5Ac(a2-3)Gal(b1-4)GlcNAc(b1-3)Gal(b1-4)GlcNAc(b1-3)[Neu5Ac(a2-3)Gal(b1-4)GlcNAc(b1-3)Gal(b1-4)GlcNAc(b1-6)]GalNAc
In short: as §1

[13] = biological target: Neu5Ac(a2-3)Gal(b1-4)GlcNAc(b1-3)Gal(b1-4)GlcNAc(b1-6)[Gal(b1-3)]GalNAc
In short: as §1

[14] = biological target: Neu5Ac(a2-3)Gal(b1-4)GlcNAc(b1-3)Gal(b1-4)[Fuc(a1-3)]GlcNAc
In short: as §1

[15] = biological target: Neu5Ac(a2-3)Gal(b1-4)GlcNAc(b1-3)GalNAc
In short: as §1

[16] = biological target: Neu5Ac(a2-3)Gal(b1-4)GlcNAc(b1-3)[Neu5Ac(a2-3)Gal(b1-4)GlcNAc(b1-6)]GalNAc
In short: as §1

[17] = biological target: Neu5Ac(a2-3)Gal(b1-4)GlcNAc(b1-6)GalNAc
In short: as §1

[18] = biological target: Neu5Ac(a2-3)Gal(b1-4)GlcNAc(b1-6)[Gal(b1-3)]GalNAc
In short: as §1

[19] = biological target: Neu5Ac(a2-3)Gal(b1-4)GlcNAc(b1-6)[Neu5Ac(a2-3)Gal(b1-3)]GalNAc
In short: as §1

[20] = biological target: Neu5Ac(a2-3)Gal(b1-4)GlcNAc6S
In short: as §1

[21] = biological target: Neu5Ac(a2-3)Gal(b1-4)[Fuc(a1-3)]GlcNAc
In short: as §1

[22] = biological target: Neu5Ac(a2-3)Gal(b1-4)[Fuc(a1-3)]GlcNAc(b1-2)Man
In short: as §1

[23] = biological target: Neu5Ac(a2-3)Gal(b1-4)[Fuc(a1-3)]GlcNAc(b1-3)Gal
In short: as §1

[24] = biological target: Neu5Ac(a2-3)Gal(b1-4)[Fuc(a1-3)]GlcNAc(b1-3)Gal(b1-4)GlcNAc
In short: as §1

[25] = biological target: Neu5Ac(a2-3)Gal(b1-4)[Fuc(a1-3)]GlcNAc(b1-3)Gal(b1-4)[Fuc(a1-3)]GlcNAc(b1-3)Gal(b1-4)[Fuc(a1-3)]GlcNAc
In short: as §1

[26] = biological target: Neu5Ac(a2-3)Gal(b1-4)[Fuc(a1-3)]GlcNAc(b1-3)GalNAc
In short: as §1

[27] = biological target: Neu5Ac(a2-3)Gal(b1-4)[Fuc(a1-3)]GlcNAc(b1-6)[Gal(b1-3)]GalNAc
In short: as §1

[28] = biological target: Neu5Ac(a2-3)Gal(b1-4)[Fuc(a1-3)]GlcNAc(b1-6)[Neu5Ac(a2-3)Gal(b1-3)]GalNAc
In short: as §1

[29] = biological target: Neu5Ac(a2-3)Gal(b1-4)[Fuc(a1-3)]GlcNAc6S
In short: as §1

[30] = biological target: Neu5Ac(a2-3)Gal6S(b1-4)GlcNAc
In short: as §1

[31] = biological target: Neu5Ac(a2-3)Gal6S(b1-4)[Fuc(a1-3)]GlcNAc
In short: as §1

Neu5Ac(a2-3)GalNAc = biological target: Neu5Ac(a2-3)GalNAc
In short: as §1

[32] = biological target: Neu5Ac(a2-3)GalNAc(b1-4)GlcNAc
In short: as §1

[33] = biological target: Neu5Ac(a2-3)[GalNAc(b1-4)]Gal(b1-4)Glc
In short: as §1

[34] = biological target: Neu5Ac(a2-3)[GalNAc(b1-4)]Gal(b1-4)GlcNAc
In short: as §1

[35] = biological target: Neu5Ac(a2-3)[GalNAc(b1-4)]Gal(b1-4)GlcNAc(b1-3)GalNAc
In short: as §1

[36] = biological target: Neu5Ac(a2-3)[Neu5Ac(a2-6)]GalNAc
In short: as §1

Neu5Ac(a2-6)Gal = biological target: Neu5Ac(a2-6)Gal
In short: as §1

[37] = biological target: Neu5Ac(a2-6)Gal(b1-3)GlcNAc(b1-3)[Gal(b1-4)GlcNAc(b1-6)]Gal(b1-4)Glc
In short: as §1

Neu5Ac(a2-6)Gal(b1-4)Glc = biological target: Neu5Ac(a2-6)Gal(b1-4)Glc
In short: as §1

[38] = biological target: Neu5Ac(a2-6)Gal(b1-4)GlcNAc
In short: as §1

[39] = biological target: Neu5Ac(a2-6)Gal(b1-4)GlcNAc(b1-2)Man
In short: as §1

[40] = biological target: Neu5Ac(a2-6)Gal(b1-4)GlcNAc(b1-2)Man(a1-3)Man(b1-4)GlcNAc(b1-4)GlcNAc
In short: as §1

[41] = biological target: Neu5Ac(a2-6)Gal(b1-4)GlcNAc(b1-2)Man(a1-3)[Gal(b1-4)GlcNAc(b1-2)Man(a1-6)]Man(b1-4)GlcNAc(b1-4)GlcNAc
In short: as §1

[42] = biological target: Neu5Ac(a2-6)Gal(b1-4)GlcNAc(b1-2)Man(a1-3)[GlcNAc(b1-2)Man(a1-6)]Man(b1-4)GlcNAc(b1-4)GlcNAc
In short: as §1

B1: ERGIC1-EDTA (Homo sapiens), Q969X5 (protein)
chain: MKFLVNVALVFMVVYISYIYAAAHMHHHHHHDYDIPTTENLYFQGSEVVNELYVDDPDKDSGGKIDVSLNISLPNLHCELVGLDIQDEMGRHEVGHIDNSMKIPLNNGAGCRFEGQFSINKVPGNFHVSTHSATAQPQNPDMTHVIHKLSFGDTLQVQNIHGAFNALGGADRLTSNPLASHDYILKIVPTVYEDKSGKQRYSYQYTVANKEYVAYSHTGRIIPAIWFRYDLSPITVKYTE
glycan array binding signal (z-score) [1]: -1.13
glycan array binding signal (z-score) [2]: -0.304
glycan array binding signal (z-score) [3]: 0.127
glycan array binding signal (z-score) [4]: -0.63
glycan array binding signal (z-score) [5]: -0.734
glycan array binding signal (z-score) [6]: -0.841
glycan array binding signal (z-score) [7]: -0.161
glycan array binding signal (z-score) [8]: 0.508
glycan array binding signal (z-score) [9]: -0.486
glycan array binding signal (z-score) [10]: 0.751
glycan array binding signal (z-score) [11]: -0.406
glycan array binding signal (z-score) [12]: 0.647
glycan array binding signal (z-score) [13]: -0.989
glycan array binding signal (z-score) [14]: -0.82
glycan array binding signal (z-score) [15]: 0.024
glycan array binding signal (z-score) [16]: 1.09
glycan array binding signal (z-score) [17]: -0.324
glycan array binding signal (z-score) [18]: -0.533
glycan array binding signal (z-score) [19]: -0.285
glycan array binding signal (z-score) [20]: 0.354
glycan array binding signal (z-score) [21]: 0.226
glycan array binding signal (z-score) [22]: -0.895
glycan array binding signal (z-score) [23]: -1.23
glycan array binding signal (z-score) [24]: 2.27
glycan array binding signal (z-score) [25]: -1.07
glycan array binding signal (z-score) [26]: 3
glycan array binding signal (z-score) [27]: 0.719
glycan array binding signal (z-score) [28]: 1.03
glycan array binding signal (z-score) [29]: -0.552
glycan array binding signal (z-score) [30]: -0.233
glycan array binding signal (z-score) [31]: -1.17
glycan array binding signal (z-score) (Neu5Ac(a2-3)GalNAc): -0.644
glycan array binding signal (z-score) [32]: -0.941
glycan array binding signal (z-score) [33]: -0.417
glycan array binding signal (z-score) [34]: 0.563
glycan array binding signal (z-score) [35]: 0.21
glycan array binding signal (z-score) [36]: -0.668
glycan array binding signal (z-score) (Neu5Ac(a2-6)Gal): 1.44
glycan array binding signal (z-score) [37]: 0.481
glycan array binding signal (z-score) (Neu5Ac(a2-6)Gal(b1-4)Glc): 0.01
glycan array binding signal (z-score) [38]: 0.443
glycan array binding signal (z-score) [39]: 0.07
glycan array binding signal (z-score) [40]: -0.277
glycan array binding signal (z-score) [41]: -0.447
glycan array binding signal (z-score) [42]: 0.41
